Binding data for 3 molecules are collected here from paper PMC4451243.

Sequences of proteins named here, by UniProt entry; tags and fusion partners are left off.
UniProt Q03468: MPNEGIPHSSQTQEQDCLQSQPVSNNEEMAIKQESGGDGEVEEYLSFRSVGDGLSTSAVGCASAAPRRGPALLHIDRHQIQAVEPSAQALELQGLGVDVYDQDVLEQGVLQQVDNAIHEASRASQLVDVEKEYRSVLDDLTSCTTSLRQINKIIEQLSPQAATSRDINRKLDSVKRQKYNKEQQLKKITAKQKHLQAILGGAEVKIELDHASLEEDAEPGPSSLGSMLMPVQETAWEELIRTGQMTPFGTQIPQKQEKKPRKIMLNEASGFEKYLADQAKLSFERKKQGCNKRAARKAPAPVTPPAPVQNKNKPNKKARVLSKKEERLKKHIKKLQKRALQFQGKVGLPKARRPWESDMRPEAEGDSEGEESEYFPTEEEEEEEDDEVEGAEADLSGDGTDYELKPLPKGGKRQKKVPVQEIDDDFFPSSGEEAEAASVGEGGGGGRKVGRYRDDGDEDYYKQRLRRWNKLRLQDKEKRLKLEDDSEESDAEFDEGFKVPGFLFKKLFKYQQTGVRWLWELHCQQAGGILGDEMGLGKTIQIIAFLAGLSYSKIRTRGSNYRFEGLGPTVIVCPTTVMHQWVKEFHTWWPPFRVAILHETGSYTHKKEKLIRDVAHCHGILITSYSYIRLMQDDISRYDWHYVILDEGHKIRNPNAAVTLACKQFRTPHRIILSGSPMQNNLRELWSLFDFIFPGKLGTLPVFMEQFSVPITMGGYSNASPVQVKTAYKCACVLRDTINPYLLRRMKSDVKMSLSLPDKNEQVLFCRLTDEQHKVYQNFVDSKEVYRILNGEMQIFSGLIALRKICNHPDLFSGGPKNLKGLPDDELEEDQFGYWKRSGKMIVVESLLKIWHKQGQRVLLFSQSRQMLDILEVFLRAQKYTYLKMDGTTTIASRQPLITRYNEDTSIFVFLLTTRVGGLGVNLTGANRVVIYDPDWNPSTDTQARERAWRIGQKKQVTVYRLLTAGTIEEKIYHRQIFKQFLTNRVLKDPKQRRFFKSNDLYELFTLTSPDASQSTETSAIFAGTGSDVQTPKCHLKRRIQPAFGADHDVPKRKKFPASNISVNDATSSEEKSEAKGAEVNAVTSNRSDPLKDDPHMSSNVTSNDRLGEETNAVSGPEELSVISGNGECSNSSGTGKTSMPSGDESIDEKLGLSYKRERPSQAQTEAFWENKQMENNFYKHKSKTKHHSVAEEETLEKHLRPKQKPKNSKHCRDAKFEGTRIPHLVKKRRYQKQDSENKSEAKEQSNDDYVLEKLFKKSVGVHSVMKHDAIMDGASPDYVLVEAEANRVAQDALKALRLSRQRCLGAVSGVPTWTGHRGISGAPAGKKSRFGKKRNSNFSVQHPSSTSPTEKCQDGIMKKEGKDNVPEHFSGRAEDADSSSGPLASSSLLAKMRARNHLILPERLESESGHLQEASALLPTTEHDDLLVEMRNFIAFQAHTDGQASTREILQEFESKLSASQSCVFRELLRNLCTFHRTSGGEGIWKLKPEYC

These are yes or no findings as the source states them, for the method shown. Binding seen in cells or lysates may run through a third protein. Some binding calls cover weakened binding; strength is not graded here. Tags and fused reporters may be left off the sequences shown.

In the assay the target is Flag-tagged CSB (human) (UniProt Q03468). Kind of assay: co-IP; lysates (RIPA buffer) of CSIAN cells co-transfected with Flag-tagged CSB and a Myc-tagged protein, 24 hr post transfection; anti-Flag M2-agarose overnight; Western blot with anti-Myc. Background: In western blotting, separated proteins are transferred to a membrane and probed.

B1: Myc-tagged DDX23 (protein, UniProt Q9BUQ8 1-820)
chain: MAGELADKKDRDASPSKEERKRSRTPDRERDRDRDRKSSPSKDRKRHRSRDRRRGGSRSRSRSRSKSAERERRHKERERDKERDRNKKDRDRDKDGHRRDKDRKRSSLSPGRGKDFKSRKDRDSKKDEEDEHGDKKPKAQPLSLEELLAKKKAEEEAEAKPKFLSKAEREAEALKRRQQEVEERQRMLEEERKKRKQFQDLGRKMLEDPQERERRERRERMERETNGNEDEEGRQKIREEKDKSKELHAIKERYLGGIKKRRRTRHLNDRKFVFEWDASEDTSIDYNPLYKERHQVQLLGRGFIAGIDLKQQKREQSRFYGDLMEKRRTLEEKEQEEARLRKLRKKEAKQRWDDRHWSQKKLDEMTDRDWRIFREDYSITTKGGKIPNPIRSWKDSSLPPHILEVIDKCGYKEPTPIQRQAIPIGLQNRDIIGVAETGSGKTAAFLIPLLVWITTLPKIDRIEESDQGPYAIILAPTRELAQQIEEETIKFGKPLGIRTVAVIGGISREDQGFRLRMGCEIVIATPGRLIDVLENRYLVLSRCTYVVLDEADRMIDMGFEPDVQKILEHMPVSNQKPDTDEAEDPEKMLANFESGKHKYRQTVMFTATMPPAVERLARSYLRRPAVVYIGSAGKPHERVEQKVFLMSESEKRKKLLAILEQGFDPPIIIFVNQKKGCDVLAKSLEKMGYNACTLHGGKGQEQREFALSNLKAGAKDILVATDVAGRGIDIQDVSMVVNYDMAKNIEDYIHRIGRTGRAGKSGVAITFLTKEDSAVFYELKQAILESPVSSCPPELANHPDAQHKPGTILTKKRREETIFA
Regarding B1, the binding entry is given as “binds”.

B2: Myc-tagged CSTF1 (protein, UniProt Q05048 1-431)
chain: MYRTKVGLKDRQQLYKLIISQLLYDGYISIANGLINEIKPQSVCAPSEQLLHLIKLGMENDDTAVQYAIGRSDTVAPGTGIDLEFDADVQTMSPEASEYETCYVTSHKGPCRVATYSRDGQLIATGSADASIKILDTERMLAKSAMPIEVMMNETAQQNMENHPVIRTLYDHVDEVTCLAFHPTEQILASGSRDYTLKLFDYSKPSAKRAFKYIQEAEMLRSISFHPSGDFILVGTQHPTLRLYDINTFQCFVSCNPQDQHTDAICSVNYNSSANMYVTGSKDGCIKLWDGVSNRCITTFEKAHDGAEVCSAIFSKNSKYILSSGKDSVAKLWEISTGRTLVRYTGAGLSGRQVHRTQAVFNHTEDYVLLPDERTISLCCWDSRTAERRNLLSLGHNNIVRCIVHSPTNPGFMTCSDDFRARFWYRRSTTD
For B2, the binding result is given as “binds”.

B3: Myc-tagged PRPF3 (protein, UniProt O43395 1-683)
chain: MALSKRELDELKPWIEKTVKRVLGFSEPTVVTAALNCVGKGMDKKKAADHLKPFLDDSTLRFVDKLFEAVEEGRSSRHSKSSSDRSRKRELKEVFGDDSEISKESSGVKKRRIPRFEEVEEEPEVIPGPPSESPGMLTKLQIKQMMEAATRQIEERKKQLSFISPPTPQPKTPSSSQPERLPIGNTIQPSQAATFMNDAIEKARKAAELQARIQAQLALKPGLIGNANMVGLANLHAMGIAPPKVELKDQTKPTPLILDEQGRTVDATGKEIELTHRMPTLKANIRAVKREQFKQQLKEKPSEDMESNTFFDPRVSIAPSQRQRRTFKFHDKGKFEKIAQRLRTKAQLEKLQAEISQAARKTGIHTSTRLALIAPKKELKEGDIPEIEWWDSYIIPNGFDLTEENPKREDYFGITNLVEHPAQLNPPVDNDTPVTLGVYLTKKEQKKLRRQTRREAQKELQEKVRLGLMPPPEPKVRISNLMRVLGTEAVQDPTKVEAHVRAQMAKRQKAHEEANAARKLTAEQRKVKKIKKLKEDISQGVHISVYRVRNLSNPAKKFKIEANAGQLYLTGVVVLHKDVNVVVVEGGPKAQKKFKRLMLHRIKWDEQTSNTKGDDDEESDEEAVKKTNKCVLVWEGTAKDRSFGEMKFKQCPTENMAREHFKKHGAEHYWDLALSESVLESTD
As for B3, the binding result was “binds”.
